Reference: publication doi:10.1101/2021.01.20.427402
Where two headings read alike, the source gives them in different places. These are yes or no findings as the source states them, for the method shown. In cells and extracts the contact can be indirect. Some entries that bind do so weakly or less than the wild type. Where a sequence is shown, tags or fusion partners need not be part of it.

The chains behind the UniProt entries cited, without tags or fusion partners.
UniProt P35637: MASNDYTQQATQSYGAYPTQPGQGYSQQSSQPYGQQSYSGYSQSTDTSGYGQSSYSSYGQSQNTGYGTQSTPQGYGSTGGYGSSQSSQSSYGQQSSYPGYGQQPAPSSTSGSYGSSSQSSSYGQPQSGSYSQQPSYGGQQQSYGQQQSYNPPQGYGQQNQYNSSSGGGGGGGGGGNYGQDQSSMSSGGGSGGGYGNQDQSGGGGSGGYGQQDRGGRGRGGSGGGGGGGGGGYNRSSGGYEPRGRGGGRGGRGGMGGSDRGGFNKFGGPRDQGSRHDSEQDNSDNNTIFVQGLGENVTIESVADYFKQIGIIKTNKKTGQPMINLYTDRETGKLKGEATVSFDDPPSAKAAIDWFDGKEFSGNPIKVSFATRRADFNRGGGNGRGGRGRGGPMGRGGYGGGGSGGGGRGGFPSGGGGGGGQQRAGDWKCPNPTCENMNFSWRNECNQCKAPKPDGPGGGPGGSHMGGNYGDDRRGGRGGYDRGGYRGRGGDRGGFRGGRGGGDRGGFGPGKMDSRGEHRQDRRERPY

Assays:
[1] = biological target: T1, GFP-Zαβ^DAI fusion (amino-terminal region of human DAI, residues Ala2-Tyr165, with N-terminal LAP-tag) (human) (UniProt Q9H171); assay: co-IP
T1 sequence: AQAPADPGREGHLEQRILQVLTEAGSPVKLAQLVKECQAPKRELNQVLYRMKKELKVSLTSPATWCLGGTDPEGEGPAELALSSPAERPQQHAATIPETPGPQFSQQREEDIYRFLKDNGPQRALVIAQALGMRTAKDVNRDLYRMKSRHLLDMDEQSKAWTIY

[2] = biological target: T1, GFP-Zαβ^DAI fusion (amino-terminal region of human DAI, residues Ala2-Tyr165, with N-terminal LAP-tag) (human); assay: co-IP; remark: listed apart in the source

binding [1]: binds
binding [2]: binds
Substance: FUS (from UniProt P35637 1-526)
